Test results as given in PubChem BioAssay AID328 (DTP/NCI, 2004).
The list does not hold the whole screen: it gathers some chemical classes. Other doses and runs of a compound may be missing. T/C is the treated group as % of the vehicle group. Where survival is the endpoint, this PubChem deposit counts one and a half times the control or more as active, and values a quarter to a half above the control carry no call in these data; other NCI protocols may use other cut-offs. Some T/C values are marked as having no survivor count here; that says nothing about deaths at the dose. Schedules are NCI's codes, taken here to give the interval after Q, in days (D) or hours (H), and the number of doses after X. Some entries hold several experiments; the values are given in rising order. Some metal complexes and salts are drawn in pieces, as in the source, so charges may not balance.

Test system: BDF1 mice, P388 leukemia ip, median survival T/C
Assay: NCI In Vivo Anticancer Drug Screen. Data for tumor model P388 Leukemia (intraperitoneal) in B6D2F1 (BDF1) mice
Conditions: T/C endpoint: median survival time, higher T/C = longer survival
Protocol: The antitumor activity of compounds was measured in mice bearing transplantable tumors. Survival or tumor size were measured and the results are expressed as the measurement made in the treated group (T) divided by the measurement made in the vehicle treated control group (C). The tumor model used in this assay is P388 Leukemia (intraperitoneal) in B6D2F1 (BDF1) mice

[1] = dose: 1.56 mg/kg/injection, schedule: Q01DX009 (ip), vehicle: water
[2] = dose: 6.25 mg/kg/injection, schedule: Q01DX009 (ip), vehicle: water
[3] = dose: 12.5 mg/kg/injection, schedule: Q01DX009 (ip), vehicle: water

`CN(CCCl)CCCl` was tested, and the T/C (dose: 0.06 mg/kg/injection, schedule: Q01DX010 (ip), vehicle: saline) was 90 % of control [survivor count not shown], the T/C (dose: 0.12 mg/kg/injection, schedule: Q01DX010 (ip), vehicle: saline) was 110 % of control [survivor count not shown] and the T/C (dose: 0.13 mg/kg/injection, schedule: Q01DX010 (ip), vehicle: saline) was 200 [survivor count not shown] and 203 % of control [survivor count not shown]. For the same molecule, the T/C (dose: 0.25 mg/kg/injection, schedule: Q01DX010 (ip), vehicle: saline) was 115 [survivor count not shown], 200 [survivor count not shown], 300 % of control [survivor count not shown], the T/C (dose: 0.3 mg/kg/injection, schedule: Q04DX003 (ip), vehicle: saline) was 175 % of control [survivor count not shown] and the T/C (dose: 0.43 mg/kg/injection, schedule: Q04DX003 (ip), vehicle: saline) was 221 % of control [survivor count not shown]. For the same molecule, the T/C (dose: 0.5 mg/kg/injection, schedule: Q01DX010 (ip), vehicle: saline) was 118 [survivor count not shown], 130 [survivor count not shown], 138 % of control [survivor count not shown], the T/C (dose: 0.6 mg/kg/injection, schedule: Q04DX003 (ip), vehicle: saline) was 190 % of control [survivor count not shown] and the T/C (dose: 0.72 mg/kg/injection, schedule: Q04DX003 (ip), vehicle: saline) was 221 % of control [survivor count not shown]. The T/C (dose: 1.2 mg/kg/injection, schedule: Q04DX003 (ip), vehicle: saline) was 117 % of control [survivor count not shown], the T/C (dose: 1.25 mg/kg/injection, schedule: Q04DX003 (ip), vehicle: saline) was 225 % of control [survivor count not shown] and the T/C (dose: 2.5 mg/kg/injection, schedule: Q04DX003 (ip), vehicle: saline) was 155 % of control [survivor count not shown]. For the same molecule, the T/C (dose: 389.0 micrograms/kg/injection, schedule: Q04DX003 (ip), vehicle: saline) was 172 % of control [survivor count not shown], the T/C (dose: 648.0 micrograms/kg/injection, schedule: Q04DX003 (ip), vehicle: saline) was 127 % of control [survivor count not shown] and the T/C (dose: 1080.0 micrograms/kg/injection, schedule: Q04DX003 (ip), vehicle: saline) was 200 % of control [survivor count not shown]. The T/C (dose: 1800.0 micrograms/kg/injection, schedule: Q04DX003 (ip), vehicle: saline) was 227 % of control [survivor count not shown].

For `CN(CCCl)CCCl.CN(CCCl)CCCl.[Cl][Pt+2][Cl]`, the T/C [1] was 166 % of control [survivor count not shown], the T/C (dose: 3.13 mg/kg/injection, schedule: Q01DX009 (ip), vehicle: water) was 185 % of control [survivor count not shown] and the T/C [2] was 201 % of control [survivor count not shown]. The T/C [3] was 245 % of control [survivor count not shown] and the T/C (dose: 25.0 mg/kg/injection, schedule: Q01DX009 (ip), vehicle: water) was 245 % of control [survivor count not shown].

With `CN(CCCl)CCCl.CN(CCCl)CCCl.[Cl][Cu][Cl]` the T/C [1] was 104 % of control [survivor count not shown], the T/C (dose: 3.12 mg/kg/injection, schedule: Q01DX009 (ip), vehicle: water) was 104 [survivor count not shown] and 110 % of control [survivor count not shown] and the T/C [2] was 118 [survivor count not shown] and 124 % of control [survivor count not shown]. For the same molecule, the T/C [3] was 127 [survivor count not shown] and 146 % of control [survivor count not shown] and the T/C (dose: 20.0 mg/kg/injection, schedule: Q01DX009 (ip), vehicle: water) was 128 % of control [survivor count not shown].
